Reference: US20200386770A1 (YUROGEN BIOSYSTEMS, published 2020)
No constants are given. Whether binding was seen depends on the method and setting. Some binding calls cover weakened binding; strength is not graded here.

Chains of the proteins cited; added tags and fusions are not shown. Lines headed by an entry give the natural chain unless they say otherwise; changes in a name come on top.
UniProt Q9NZQ7: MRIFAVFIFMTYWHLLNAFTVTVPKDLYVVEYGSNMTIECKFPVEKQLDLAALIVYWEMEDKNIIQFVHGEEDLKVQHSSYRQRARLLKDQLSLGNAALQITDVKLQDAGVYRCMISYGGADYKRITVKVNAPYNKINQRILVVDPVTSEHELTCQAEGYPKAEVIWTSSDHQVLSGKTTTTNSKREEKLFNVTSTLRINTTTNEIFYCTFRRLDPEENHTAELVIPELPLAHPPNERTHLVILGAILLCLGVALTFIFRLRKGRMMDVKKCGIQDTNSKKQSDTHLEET

Key:
human PD-L1 [1] = target: T1, human PD-L1 (human, UniProt Q9NZQ7 19-238, limits assumed); experiment: sandwich ELISA, 3B8 capture, biotinylated 2C5 detection
T1 construct: also called programmed death ligand-1; CD274

human PD-L1 [2] = target: T1, human PD-L1; experiment: sandwich ELISA, 2C5 capture, biotinylated 3B8 detection
human PD-L1 [3] = target: T1, human PD-L1; experiment: sandwich ELISA, 8C6 capture, biotinylated 2C5 detection
human PD-L1 [4] = target: T1, human PD-L1; experiment: sandwich ELISA, 2C5 capture, biotinylated 8C6 detection
human PD-L1 [5] = target: T1, human PD-L1; experiment: capture ELISA, antibody held by anti-rabbit IgG Fc, biotinylated PD-L1
human PD-L1 [6] = target: T1, human PD-L1; experiment: direct ELISA, human PD-L1 coated
human PD-L1 [7] = target: T1, human PD-L1; experiment: sandwich ELISA, 8C6 capture, biotinylated 3B8 detection
human PD-L1 [8] = target: T1, human PD-L1; experiment: sandwich ELISA (2C5 capture, 8C6 detection) compared with direct ELISA

Measured: binding

B1: rabbit anti-human PD-L1 mAb 2C5 (antibody, V domains shown)
VH: QSVEESGGRLVTPGTPLTLTCTVSGFSLNNDNVGWVRQAPGKGLEWVGLIDILGSSYYASWAKGRFTISKTSNTVDLKITSPTIEDTATYFCAREGDGSFDPWGPGTLVTVSS
VL: AQVLTQTPSPVSAAVGGTVTINCQASQNVYNKKNLAWYQQKLGQPPKLLIYKASTLASGVPSRFSGSGSGTQFTLTISDLECDDAATYYCQGDYIGSRAFGGGTEVVVKG
notes: Recombinant rabbit IgG; Full heavy chain assembled from the Fab heavy chain entry followed by the Fc entry; Biotinylated when used as detection antibody in the sandwich ELISA
not listed: human PD-L1 [7] | human PD-L1 [8]
binds: all other assays above

B2: rabbit anti-human PD-L1 mAb 3B8 (antibody, V domains shown)
VH: QSLEESGGDLVKPGASRTLTCTASGFSFSNNAYMCWVRQAPGKGLELIACIYSRYGNTHYASWAKGRFTISKTSSTTVTLQMTSLTAADTATYFCARGASGSSDYSFYFNLWGPGTLVTVSS
VL: AYDMTQTPASVEVAVGGTVTIKCQASQSISSWLAWYQQKPGQPPKLLIYDAYDLASGVPSRFKGSGSGTQFTLTISGVECTDAATYYCQQGYSSENIDNSFGGGTDVVVKG
notes: as for B1
binds: human PD-L1 [1] | human PD-L1 [2] | human PD-L1 [5] | human PD-L1 [6] | human PD-L1 [7]

B3: rabbit anti-human PD-L1 mAb 8C6 (antibody, V domains shown)
VH: QSVEESGGRLVTPGTPLTLTCTASGFDISRHHMCWVRQAPGEGLEYIGFINPPGSAYYANWAKGRFTISRTSTTVALEMTSLTTEDTATYFCARWRFDDYGDLWGQGTLVTVSS
VL: AYDMTQTPASVEVAVGGTVTIKCQASESIASYLAWYQQKPGQPPKLLIYKASTLASGVSSRFRGSGSGTEFTLTISGVECADAATYYCQQGYSATNIDNAFGGGTEVVVKG
notes: as for B1
not listed: human PD-L1 [1] | human PD-L1 [2]
binds: all other assays above

B4: rabbit anti-human PD-L1 mAb 10H6 (antibody, V domains shown)
VH: QEQLVESGGGLVQPEGSLTLTCTASGFSFSSIYYLCWVRQAPGKGLEWIACIYGGNSDNTWYASWAKGRFTISKTSSTTVTLQMTSLTAADTATYFCARGYDIYGYAINLWGPGTLVTVSS
VL: DVVMTQTPASVEAAVGGTVTIKCQASQSIGGYLAWYQQKPGQPPKLLIYRASTLESGVASRFKGSGSGTEFTLTISDLECADAATYYCQCTYDSSNSRIYPNVFGGGTEVVVKG
notes: Recombinant rabbit IgG; Full heavy chain assembled from the Fab heavy chain entry followed by the Fc entry
binds: human PD-L1 [5] | human PD-L1 [6]

B5: rabbit anti-human PD-L1 mAb 11G7 (antibody, V domains shown)
VH: QSVEESGGRLVTPGTPLTLTCTVSGIDLSSYDMTWVRQAPGKGLEYIGYISYFDKTYYATWAKGRFTISKTSTTVDLKMTSLTTEDTATYFCVRDRPDGITANLWGQGTLVTVSS
VL: AQLPTQTASPVSAAVGGTVTINCQSSHNVYSDNRLSWYQQKPGQPPKLLIYWASILASGVPSRFKGSGSGTQFTLTITDLECDDAATYYCAGGYSGNIYTFGGGTEVVVKG
notes: as for B4
binds: human PD-L1 [5] | human PD-L1 [6]

B6: rabbit anti-human PD-L1 mAb 12H2 (antibody, V domains shown)
VH: QEQLVESGGGLVQPEGSLTLTCTASGFSFSSSYYMCWVRQAPGKGLEWIACIWTSNGGRTYYANWAKGRFTISETSSTTVTLQMTSLTAADTATYFCARDDDTGSGYYNLWGPGTLVTVSS
VL: QIVMTQTASPVSAAVGGTVTINCQASESISSWLAWYQQKPGQPPKLLIYKASTLASGVPSRFKGSGSGTEFTLTISDLECADAATYYCQHGYYFGSVANTFGGGTEVVVKG
notes: as for B4
binds: human PD-L1 [5] | human PD-L1 [6]
